Experimental data: PubChem BioAssay AID504764 (Drosophila RNAi Screening Center, 2011)
The screen tested about 22,000 reagents; below is a random part of those with a known target gene and a result. Of all reagents, 403 (1.9%) are marked active. 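Unnormalised raw counts per well; ratio z-scores behind the hit calls and whether each hit raises or lowers signal are not deposited.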 Reagents against one gene are numbered here. No sequences are given here. The record does not give: the amount of reagent.

Assay: 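Knock-downs that raise or lower a Notch target reporter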 (primary screen)
Cell system: Drosophila Kc167 cells
Knock-down reagent: long dsRNA against Drosophila genes
Duration: about 5 days (4 days dsRNA, then 24 h after transfection)
Challenge: transfection of constitutively active membrane-tethered Notch lacking the extracellular domain, read 24 h later
Measured: 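Light from a Notch-responsive E(spl)m3 luciferase reporter under active Notch, with control-promoter and no-Notch reporter wells to normalise; raw counts from paired wells a and b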
Reading the numbers: induced reporter light, run 1, well a and induced reporter light, run 1, well b: higher = more light from the Notch target reporter with active Notch; control promoter light, run 1, well a and control promoter light, run 1, well b: higher = more light from the viral control promoter (cell number, transfection, viability); uninduced reporter light, run 1, well a: higher = more light from the Notch target reporter without active Notch
Hit rule: 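Hit if the duplicate-averaged log2 ratio of induced to control-promoter light gives a plate-wise z beyond ±2, or induced to uninduced beyond ±1.8; weak-control or discordant-duplicate wells dropped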
Calls: active = modifier hit (raised or lowered Notch signal); inactive = not a hit

predicted target | dsRNA no. | induced reporter light, run 1, well a | induced reporter light, run 1, well b | control promoter light, run 1, well a | control promoter light, run 1, well b | uninduced reporter light, run 1, well a | call
TfAP-2 | 1 | 58615 | 50520 | 61025 | 47745 | 3175 | inactive
CG34169 | 1 | 65870 | 78645 | 72810 | 80870 | 7885 | inactive
CG12539 | 1 | 88625 | 70950 | 1.01e5 | 75830 | 11070 | inactive
CG14683 | 1 | 2.09e5 | 1.64e5 | 1.29e5 | 1.20e5 | 12760 | inactive
SkpC | 1 | 77435 | 97990 | 74975 | 1.03e5 | 9745 | inactive
CG1416 | 1 | 2.29e5 | 2.18e5 | 1.70e5 | 1.93e5 | 15382 | inactive
Boot | 1 | 1.93e5 | 1.66e5 | 2.39e5 | 2.04e5 | 16882 | inactive
Tcs4 | 1 | 1.18e5 | 1.07e5 | 80520 | 56830 | 8795 | inactive
CG17687 | 1 | 1.20e5 | 1.09e5 | 1.35e5 | 1.45e5 | 5615 | inactive
CG7650 | 1 | 1.76e5 | 1.52e5 | 2.39e5 | 1.64e5 | 6325 | inactive
CG31740 | 1 | 63855 | 65260 | 74905 | 54690 | 5960 | inactive
spag | 1 | 2.00e5 | 1.90e5 | 2.02e5 | 2.01e5 | 15500 | inactive
Ance | 1 | 2.12e5 | 2.10e5 | 2.11e5 | 2.20e5 | 17355 | inactive

In a second layout: entries from further up.
{"predicted target": "CG14683", "dsRNA no.": 1, "induced reporter light, run 1, well a": 2.09e5, "induced reporter light, run 1, well b": 1.64e5, "control promoter light, run 1, well a": 1.29e5, "control promoter light, run 1, well b": 1.20e5, "uninduced reporter light, run 1, well a": 12760, "call": "inactive"}
{"predicted target": "SkpC", "dsRNA no.": 1, "induced reporter light, run 1, well a": 77435, "induced reporter light, run 1, well b": 97990, "control promoter light, run 1, well a": 74975, "control promoter light, run 1, well b": 1.03e5, "uninduced reporter light, run 1, well a": 9745, "call": "inactive"}

Additional entries follow:
predicted target | dsRNA no. | induced reporter light, run 1, well a | induced reporter light, run 1, well b | control promoter light, run 1, well a | control promoter light, run 1, well b | uninduced reporter light, run 1, well a | call
CG9168 | 1 | 1.69e5 | 1.53e5 | 2.51e5 | 1.54e5 | 9260 | inactive
ND6 (retired record) | 1 | 1.11e5 | 88820 | 92490 | 1.11e5 | 11255 | inactive
dl | 1 | 1.02e5 | 1.07e5 | 70235 | 69440 | 10815 | inactive
dl | 2 | 1.48e5 | 1.63e5 | 1.74e5 | 1.76e5 | 12425 | inactive
Eaat2 | 1 | 95525 | 70875 | 1.76e5 | 1.35e5 | 7735 | active
Eaat2 | 2 | 2.06e5 | 1.91e5 | 1.97e5 | 2.34e5 | 19520 | inactive
lz | 1 | 1.42e5 | 1.28e5 | 1.79e5 | 2.15e5 | 8000 | inactive
